Test results from patent publication US20230218710A1, “METHOD OF TREATING CORONAVIRUS INFECTIONS” (priority 2020, published 2023).
At least one peptide structure holds a part that was inferred or is arguable (an end, a ring closure or a residue). Marks after values point to notes of the source that are not given here.

Test system: LPS-induced acute lung injury mouse model
Experiment: LPS-induced acute lung injury model in mouse (Example 8)
Assay type: in vivo, mice
Conditions: HCl salts
Description: The effect of the peptides of the current invention on acute lung injury can be assessed in an LPS-induced acute lung injury mouse model by monitoring outcomes such as lung weight, fluid accumulation, cytokine secretion in blood or bronchoalveolar lavage fluid (BALF), neutrophil infiltration into lung tissues, and assessment of acute lung injury score by histopathology. Acute lung injury was induced in male C57BL/6 mice (6 to 8 weeks old) by intratracheal administration of 40 μL lipopolysaccharide (LPS) (Sigma Aldrich, St. Louis, Mo.) in PBS at 5 mg/kg. Control animals received intratracheal PBS alone. Animals (n=8 per treatment group) induced with LPS received intraperitoneal treatment with: PBS (vehicle control) or test peptides at 5 or 15 mg/kg in water. Treatments were administered 1 h prior to LPS for animals designated for termination at 4 h after LPS, or at both 1 h prior to and 6 h after LPS for animals designated for termination at 24 h after LPS. At 4 or 24 hours post-LPS administration, tissues were harvested. Lungs were weighed and flushed with Hanks Buffer to provide bronchoalveolar lavage fluid (BALF). Lungs collected at 24 h were fixed in 10% neutral buffered formalin (NBF) for histopathology. Tissue slides were stained with hematoxylin and eosin (H&E) and evaluated and scored with light microscopy of 5 representative microscopic fields (100× magnification) scoring on a 0-5 scale using standard methods (Matute-Bello G et al 2011. An Official American Thoracic Society Workshop Report: Features and Measurements of Experimental Acute Lung Injury in Animals. Am J Respir Cell Mol Biol 44:725-38). The average score for five fields was calculated for each animal. Levels of pro-inflammatory cytokines in BALF at 4 h were determined using a meso scale discovery (MSD) system. Data for test peptides were compared to the vehicle control group. Table 13 compares the lung weights following LPS induction and treatment with PBS (vehicle control), or peptides. Table 14 compares the levels of pro-inflammatory cytokines in BALF following LPS induction and treatment with PBS (vehicle control) or peptides. Table 15 compares the histopathology scores for infiltration of neutrophils into alveoli and interstitial lung tissue and the composite lung injury score following LPS induction and treatment with PBS (vehicle control) or peptides.

[1] = BALF, 4 h after LPS, 5 mg/kg i.p.
[2] = BALF, 4 h after LPS, 15 mg/kg i.p.

## CSCC[C@H](NC(=O)CNC(=O)[C@H](CCSC)NC(=O)[C@H](CCSC)NC(=O)[C@H](CCCNC(=N)N)NC(=O)[C@@H](N)CCCNC(=N)N)C(=O)N[C@H](C(=O)N[C@@H](Cc1ccccc1)C(=O)N[C@@H](CCC(N)=O)C(=O)N[C@@H](CO)C(=O)N[C@@H](CC(C)C)C(=O)N[C@@H](CS)C(=O)NCC(=O)N[C@H](C)C(=O)O)C(C)C [SEQ ID NO: 15]
4 h after LPS, 5 mg/kg i.p.
  Mean (SEM) Lung Weight: 0.269 (0.005)** g
4 h after LPS, 15 mg/kg i.p.
  Mean (SEM) Lung Weight: 0.271 (0.006)* g
24 h after LPS, 5 mg/kg i.p.
  Mean (SEM) Lung Weight: 0.295 (0.005)* g
24 h after LPS, 15 mg/kg i.p.
  Mean (SEM) Lung Weight: 0.287 (0.008)* g
[1]
  Pro-inflammatory Cytokine Level IFNγ: 0.46 (0.06) pg/mL
  Pro-inflammatory Cytokine Level IL-1β: 66.2 (6.64) pg/mL
  Pro-inflammatory Cytokine Level IL-2: 4.07 (0.59) pg/mL
  Pro-inflammatory Cytokine Level IL-4: 3.22 (0.77) pg/mL
  Pro-inflammatory Cytokine Level IL-5: 8.53 (1.86) pg/mL
  Pro-inflammatory Cytokine Level IL-6: 10400 (1550) pg/mL
  Pro-inflammatory Cytokine Level IL-9: 12.1 (1.93) pg/mL
  Pro-inflammatory Cytokine Level IL-10: 31.2 (5.61) pg/mL
  Pro-inflammatory Cytokine Level IL-12p70: 130 (27.6) pg/mL
  Pro-inflammatory Cytokine Level IL-17A: 2.20 (0.275) pg/mL
  Pro-inflammatory Cytokine Level IL-17A/F: 5.11 (0.80) pg/mL
  Pro-inflammatory Cytokine Level IL-17C: 0.83 (0.11) pg/mL
  Pro-inflammatory Cytokine Level IL-17E/IL-25: 0.16 (0.10) pg/mL
  Pro-inflammatory Cytokine Level IL-23: 0.06 (0.04) pg/mL
  Pro-inflammatory Cytokine Level IL-27p28/IL-30: 18.4 (3.36) pg/mL
  Pro-inflammatory Cytokine Level IL-31: 0.66 (0.66) pg/mL
  Pro-inflammatory Cytokine Level IP-10: 2930 (270) pg/mL
  Pro-inflammatory Cytokine Level KC/GRO: 3070 (276) pg/mL
  Pro-inflammatory Cytokine Level MCP-1: 1430 (147) pg/mL
  Pro-inflammatory Cytokine Level MIP-1α: 5680 (25.5) pg/mL
  Pro-inflammatory Cytokine Level MIP-2: 3190 (23.2) pg/mL
  Pro-inflammatory Cytokine Level MIP-3α: 1220 (129) pg/mL
  Pro-inflammatory Cytokine Level TNFα: 4600 (474) pg/mL
[2]
  Pro-inflammatory Cytokine Level IFNγ: 0.44 (0.112) pg/mL
  Pro-inflammatory Cytokine Level IL-1β: 57.1 (11.1) pg/mL
  Pro-inflammatory Cytokine Level IL-2: 2.86 (0.57) pg/mL
  Pro-inflammatory Cytokine Level IL-4: 2.19 (0.51) pg/mL
  Pro-inflammatory Cytokine Level IL-5: 10.8 (3.21) pg/mL
  Pro-inflammatory Cytokine Level IL-6: 9670 (2170) pg/mL
  Pro-inflammatory Cytokine Level IL-9: 7.29 (1.31) pg/mL
  Pro-inflammatory Cytokine Level IL-10: 39.6 (13.2) pg/mL
  Pro-inflammatory Cytokine Level IL-12p70: 109 (30.1) pg/mL
  Pro-inflammatory Cytokine Level IL-17A: 3.11 (1.42) pg/mL
  Pro-inflammatory Cytokine Level IL-17A/F: 4.72 (0.76) pg/mL
  Pro-inflammatory Cytokine Level IL-17C: 1.25 (0.25) pg/mL
  Pro-inflammatory Cytokine Level IL-17E/IL-25: 0.00 (0.00) pg/mL
  Pro-inflammatory Cytokine Level IL-23: 0.06 (0.06) pg/mL
  Pro-inflammatory Cytokine Level IL-27p28/IL-30: 13.8 (2.84) pg/mL
  Pro-inflammatory Cytokine Level IL-31: 0.00 (0.00) pg/mL
  Pro-inflammatory Cytokine Level IP-10: 2190 (430) pg/mL
